Measured values published in paper PMC7519303.
Results are given in words; binding and its absence hold for the method and conditions named. For part of these data: A result given as binding can be weak or reduced; the word gives no strength. Where a sequence is shown, tags or fusion partners need not be part of it.

Legend:
MglA-His6 (M. xanthus) [1] = biological target: T1, MglA-His6 (M. xanthus) (UniProt Q1DB04); test: pull-down; MglA-His6 preloaded with GDP, then mixed with SgmX-Strep; applied to Ni2+-NTA agarose, washed, eluted with 400 mM imidazole; SDS/PAGE, Coomassie stain; both purified
T1 sequence: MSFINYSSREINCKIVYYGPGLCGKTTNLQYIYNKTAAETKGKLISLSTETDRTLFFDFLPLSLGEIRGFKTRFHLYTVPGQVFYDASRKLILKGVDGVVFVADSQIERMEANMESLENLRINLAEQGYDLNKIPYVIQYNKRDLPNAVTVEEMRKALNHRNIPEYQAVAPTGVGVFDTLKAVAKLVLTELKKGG

MglA-His6 (M. xanthus) [2] = biological target: T1, MglA-His6 (M. xanthus); test: pull-down; MglA-His6 preloaded with GTP, then mixed with SgmX-Strep; applied to Ni2+-NTA agarose, washed, eluted with 400 mM imidazole; SDS/PAGE, Coomassie stain; both purified
MglA-His6 (M. xanthus) [3] = biological target: T1, MglA-His6 (M. xanthus); test: condition: only MglA-His6 without a preloaded nucleotide; pull-down; MglA-His6 without preloaded nucleotide, then mixed with SgmX-Strep; applied to Ni2+-NTA agarose, washed, eluted with 400 mM imidazole; SDS/PAGE, Coomassie stain; both purified

## SgmX-Strep (C-terminal Strep-tagged SgmX variant) (M. xanthus)
MglA-His6 (M. xanthus) [1]
  binding: no binding (only MglA-His6 preloaded with GDP)
MglA-His6 (M. xanthus) [2]
  binding: binds
MglA-His6 (M. xanthus) [3]
  binding: no binding
